Measurements published in paper PMC9392266.
These are yes or no findings as the source states them, for the method shown. In cells and extracts the contact can be indirect. Some entries that bind do so weakly or less than the wild type. One block for each binder: values may come before it.

The chains behind the UniProt entries cited, without tags or fusion partners.
UniProt Q6KCD5: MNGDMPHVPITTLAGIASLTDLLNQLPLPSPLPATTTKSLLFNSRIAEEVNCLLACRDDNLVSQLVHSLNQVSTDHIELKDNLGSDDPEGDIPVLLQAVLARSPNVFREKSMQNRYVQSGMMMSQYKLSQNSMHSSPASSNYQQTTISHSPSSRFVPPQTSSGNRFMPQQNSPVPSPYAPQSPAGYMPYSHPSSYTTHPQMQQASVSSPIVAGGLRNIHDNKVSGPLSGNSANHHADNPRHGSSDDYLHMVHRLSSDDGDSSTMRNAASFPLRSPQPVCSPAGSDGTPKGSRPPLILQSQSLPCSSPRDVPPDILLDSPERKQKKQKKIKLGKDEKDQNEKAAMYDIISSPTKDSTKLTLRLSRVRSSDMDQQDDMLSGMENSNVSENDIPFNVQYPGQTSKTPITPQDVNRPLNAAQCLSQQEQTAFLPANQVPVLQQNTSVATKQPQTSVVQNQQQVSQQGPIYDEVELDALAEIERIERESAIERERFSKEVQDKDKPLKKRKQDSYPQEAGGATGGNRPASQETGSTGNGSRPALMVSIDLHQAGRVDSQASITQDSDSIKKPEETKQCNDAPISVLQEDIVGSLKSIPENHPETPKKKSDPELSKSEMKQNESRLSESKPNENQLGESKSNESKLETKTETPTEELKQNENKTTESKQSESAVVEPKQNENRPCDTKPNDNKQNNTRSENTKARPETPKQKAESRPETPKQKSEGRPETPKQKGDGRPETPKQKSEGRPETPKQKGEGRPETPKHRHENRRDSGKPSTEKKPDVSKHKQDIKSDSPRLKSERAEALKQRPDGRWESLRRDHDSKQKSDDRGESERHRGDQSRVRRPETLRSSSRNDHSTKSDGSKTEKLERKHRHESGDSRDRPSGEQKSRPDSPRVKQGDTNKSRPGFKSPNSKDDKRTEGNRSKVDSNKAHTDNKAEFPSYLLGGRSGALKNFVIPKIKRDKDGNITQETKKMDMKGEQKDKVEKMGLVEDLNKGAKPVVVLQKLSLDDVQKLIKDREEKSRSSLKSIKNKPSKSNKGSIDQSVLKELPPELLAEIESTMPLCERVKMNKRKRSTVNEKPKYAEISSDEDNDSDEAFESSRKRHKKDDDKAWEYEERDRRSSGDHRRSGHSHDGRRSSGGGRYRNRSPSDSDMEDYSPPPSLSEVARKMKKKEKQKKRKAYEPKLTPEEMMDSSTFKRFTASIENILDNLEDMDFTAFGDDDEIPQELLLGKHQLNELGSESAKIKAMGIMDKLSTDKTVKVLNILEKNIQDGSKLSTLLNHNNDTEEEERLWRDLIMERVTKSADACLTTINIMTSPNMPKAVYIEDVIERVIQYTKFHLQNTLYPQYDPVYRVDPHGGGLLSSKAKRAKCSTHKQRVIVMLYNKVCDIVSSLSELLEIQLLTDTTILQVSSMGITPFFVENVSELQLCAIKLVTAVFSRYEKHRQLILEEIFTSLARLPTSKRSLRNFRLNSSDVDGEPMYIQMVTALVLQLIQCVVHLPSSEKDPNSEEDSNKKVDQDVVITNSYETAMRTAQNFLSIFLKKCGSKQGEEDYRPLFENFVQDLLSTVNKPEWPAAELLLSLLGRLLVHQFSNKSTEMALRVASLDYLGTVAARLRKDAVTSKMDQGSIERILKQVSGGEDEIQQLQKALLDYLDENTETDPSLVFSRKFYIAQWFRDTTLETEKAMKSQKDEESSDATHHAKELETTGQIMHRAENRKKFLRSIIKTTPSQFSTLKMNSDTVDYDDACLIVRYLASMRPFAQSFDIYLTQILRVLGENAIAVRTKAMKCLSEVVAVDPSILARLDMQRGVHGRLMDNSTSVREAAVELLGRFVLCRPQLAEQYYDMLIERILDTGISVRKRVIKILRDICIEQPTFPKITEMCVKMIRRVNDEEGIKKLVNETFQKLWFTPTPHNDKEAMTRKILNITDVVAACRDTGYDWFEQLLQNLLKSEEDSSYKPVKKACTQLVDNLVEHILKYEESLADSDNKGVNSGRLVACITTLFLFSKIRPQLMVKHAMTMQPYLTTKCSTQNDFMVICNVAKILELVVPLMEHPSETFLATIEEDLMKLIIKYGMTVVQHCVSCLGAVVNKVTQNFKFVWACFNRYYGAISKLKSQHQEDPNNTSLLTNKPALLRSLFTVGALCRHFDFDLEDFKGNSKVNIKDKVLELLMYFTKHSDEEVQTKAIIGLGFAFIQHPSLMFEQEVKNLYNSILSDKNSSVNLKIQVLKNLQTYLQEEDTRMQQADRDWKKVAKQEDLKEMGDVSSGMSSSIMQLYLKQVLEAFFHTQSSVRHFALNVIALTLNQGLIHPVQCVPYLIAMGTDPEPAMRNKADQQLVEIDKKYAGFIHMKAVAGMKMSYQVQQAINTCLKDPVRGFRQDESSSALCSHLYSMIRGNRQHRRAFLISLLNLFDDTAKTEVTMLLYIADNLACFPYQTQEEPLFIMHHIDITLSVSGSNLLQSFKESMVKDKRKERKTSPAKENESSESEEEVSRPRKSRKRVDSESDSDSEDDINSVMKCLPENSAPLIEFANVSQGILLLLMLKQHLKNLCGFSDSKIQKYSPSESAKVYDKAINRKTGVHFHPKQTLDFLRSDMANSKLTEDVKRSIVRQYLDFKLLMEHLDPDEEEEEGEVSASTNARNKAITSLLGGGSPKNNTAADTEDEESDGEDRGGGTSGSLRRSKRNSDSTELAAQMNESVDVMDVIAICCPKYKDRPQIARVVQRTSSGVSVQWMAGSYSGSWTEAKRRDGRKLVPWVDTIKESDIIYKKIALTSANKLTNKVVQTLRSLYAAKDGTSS
UniProt Q9CW03: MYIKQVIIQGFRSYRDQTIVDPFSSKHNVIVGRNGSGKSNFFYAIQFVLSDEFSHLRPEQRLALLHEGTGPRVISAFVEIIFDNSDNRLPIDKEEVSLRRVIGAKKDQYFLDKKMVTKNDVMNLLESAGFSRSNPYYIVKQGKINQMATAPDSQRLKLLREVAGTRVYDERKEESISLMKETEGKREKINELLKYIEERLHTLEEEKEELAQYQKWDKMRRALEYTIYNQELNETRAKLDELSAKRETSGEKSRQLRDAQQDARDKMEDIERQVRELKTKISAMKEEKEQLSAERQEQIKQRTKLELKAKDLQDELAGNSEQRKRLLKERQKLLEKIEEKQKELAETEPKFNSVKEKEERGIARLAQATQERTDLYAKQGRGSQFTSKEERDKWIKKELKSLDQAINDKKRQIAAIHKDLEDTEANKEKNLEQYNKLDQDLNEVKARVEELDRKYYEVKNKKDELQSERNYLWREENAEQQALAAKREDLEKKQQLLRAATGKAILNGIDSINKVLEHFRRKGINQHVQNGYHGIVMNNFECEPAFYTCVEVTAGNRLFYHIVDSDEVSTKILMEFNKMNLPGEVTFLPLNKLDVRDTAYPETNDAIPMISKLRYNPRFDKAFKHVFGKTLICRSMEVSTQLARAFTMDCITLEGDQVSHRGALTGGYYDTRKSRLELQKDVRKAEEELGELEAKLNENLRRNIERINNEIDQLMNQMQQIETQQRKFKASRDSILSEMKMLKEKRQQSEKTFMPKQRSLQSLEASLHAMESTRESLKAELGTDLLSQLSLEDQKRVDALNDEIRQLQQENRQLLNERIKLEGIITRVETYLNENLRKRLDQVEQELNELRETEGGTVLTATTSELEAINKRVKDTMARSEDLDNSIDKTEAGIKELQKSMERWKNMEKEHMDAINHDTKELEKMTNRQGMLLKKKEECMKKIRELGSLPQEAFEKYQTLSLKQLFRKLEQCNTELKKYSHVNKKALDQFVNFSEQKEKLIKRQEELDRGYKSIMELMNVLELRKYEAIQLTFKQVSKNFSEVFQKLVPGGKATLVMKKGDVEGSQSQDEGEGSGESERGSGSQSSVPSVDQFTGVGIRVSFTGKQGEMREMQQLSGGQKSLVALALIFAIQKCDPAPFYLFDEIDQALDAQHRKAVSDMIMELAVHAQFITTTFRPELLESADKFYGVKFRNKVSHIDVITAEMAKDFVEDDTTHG

Experiments:
[1] = molecular target: NIPBL (mouse (endogenous in mESCs)) (UniProt Q6KCD5); experiment: co-IP; IP of SMC3 and NIPBL from WT siGLO and Pds5a-/- siPds5b mESC nuclear lysates (Benzonase-digested), high stringency conditions; antibody on Protein G Dynabeads; western blot
[2] = molecular target: SMC3 (mouse (endogenous in mESCs)) (UniProt Q9CW03); experiment: as above

- binding [1]: binds
B1: PDS5A (protein, UniProt Q6A026 1-1332)
chain: MDFTQPKPATALCGVVSADGKIAYPPGVKEITDKITTDEMIKRLKMVVKTFMDMDQDSEDEKQQYLPLALHLASEFFLRNPNKDVRLLVACCLADIFRIYAPEAPYTSHDKLKDIFLFITRQLKGLEDTKSPQFNRYFYLLENLAWVKSYNICFELEDCNEIFIQLFRTLFSVINNSHNTKVQMHMLDLMSSIIMEGDGVTQELLDSILINLIPAHKNLNKQSFDLAKVLLKRTVQTIEACIANFFNQVLVLGRSSVSDLSEHVFDLIQELFAIDPQLLLSVMPQLEFKLKSNDGEERLAVVRLLAKLFGSKDSDLATQNRPLWQCFLGRFNDIHVPVRLESVKFASHCLMNHPDLAKDLTEYLKVRSHDPEEAIRHDVIVTIITAAKRDLALVNDQLLGFVRERTLDKRWRVRKEAMMGLAQLYKKYCLHGEAGKEAAEKVSWIKDKLLHIYYQNSIDDKLLVEKIFAQYLVPHNLETEERMKCLYYLYASLDPNAVKALNEMWKCQNMLRSHVRELLDLHKQPTSEANCSAMFGKLMTIAKNLPDPGKAQDFVKKFNQVLGDDEKLRSQLELLISPTCSCKQADVCVREIARKLANPKQPTNPFLEMVKFLLERIAPVHIDSEAISALVKLMNKSIEGTADDEEEGVSPDSAIRSGLELLKVLSFTHPTSFHSAETYESLLQCLRMEDDKVAEAAIQIFRNTGHKIETDLPQIRSTLIPILHQKAKRGTPHQAKQAVHCIHAIFSNKEVQLAQIFEPLSRSLNADVPEQLITPLVSLGHISMLAPDQFASPMKSVVANFIVKDLLMNDRSTGEKNGKLWSPDEEVSPEVLAKVYLLRLLVRWLLGMKNNQSKSANSTLRLLSAMLVSEGDLTEQKRISKSDMSRLRLAAGSAIMKLAQEPCYHEIITPEQFQLCALVINDECYQVRQIFAQKLHKALVKLLLPLEYMAIFALCAKDPVKERRAHARQCLLKNISIRREYIKQNPMATEKLLSLLPEYVVPYMIHLLAHDPDFTRSQDVDQLRDIKECLWFMLEVLMTKNENNSHAFMKKMAENIKLTRDAQSPDESKTNEKLYTVCDVALCVINSKSALCNADSPKDPVLPMKFFTQPEKDFCNDKSYISEETRVLLLTGKPKPTGVLGTVNKPLSATGRKPYVRSAGTETGSNINANSELSPSAGSRSREQSSEASETGVSENEENPVRIISVTPVKNIDTVKNKEINSDQSTQGNISSDRGKKRIVTAAGAENIQKPDEKVDESGPPAPSKPRRGRRPKSESQGNATKNDDLNKPVSKGRKRAAGSQESLEAGNAKAPKLQDGAKKAVPAERQIDLQR

- binding [1]: binds
B2: CTCF (protein, UniProt Q61164 1-736)
chain: MEGEAVEAIVEESETFIKGKERKTYQRRREGGQEEDACHLPQNQTDGGEVVQDVNSSVQMVMMEQLDPTLLQMKTEVMEGTVAPEAEAAVDDTQIITLQVVNMEEQPINIGELQLVQVPVPVTVPVATTSVEELQGAYENEVSKEGLAESEPMICHTLPLPEGFQVVKVGANGEVETLEQGELPPQEDSSWQKDPDYQPPAKKTKKTKKSKLRYTEEGKDVDVSVYDFEEEQQEGLLSEVNAEKVVGNMKPPKPTKIKKKGVKKTFQCELCSYTCPRRSNLDRHMKSHTDERPHKCHLCGRAFRTVTLLRNHLNTHTGTRPHKCPDCDMAFVTSGELVRHRRYKHTHEKPFKCSMCDYASVEVSKLKRHIRSHTGERPFQCSLCSYASRDTYKLKRHMRTHSGEKPYECYICHARFTQSGTMKMHILQKHTENVAKFHCPHCDTVIARKSDLGVHLRKQHSYIEQGKKCRYCDAVFHERYALIQHQKSHKNEKRFKCDQCDYACRQERHMIMHKRTHTGEKPYACSHCDKTFRQKQLLDMHFKRYHDPNFVPAAFVCSKCGKTFTRRNTMARHADNCAGPDGVEGENGGETKKSKRGRKRKMRSKKEDSSDSEENAEPDLDDNEEEEEPAVEIEPEPEPQPQPPPPPQPVAPAPPPAKKRRGRPPGRTNQPKQNQPTAIIQVEDQNTGAIENIIVEVKKEPDAEPAEGEEEEAQAATTDAPNGDLTPEMILSMMDR

- binding [2]: binds
B3: WAPL (protein, UniProt Q65Z40 1-1200)
chain: MTSRFGKTYSRKGGNGSSKFDEVFSNKRTTLSTKWGETTFMAKLGQKRPNFKPDIQEIPKKPKVEEEDTGDPFGFDSDDESLPVSSKNLAQGKGSSYSESSEAAQLEEVTSVFEANSKCSHVVGEDSFASDRCLLVEDTLIGKEKSISRIPEDNANKSSCTKLLTSDKVENFSEEHEKNSHHFHKNAEDSTKKPNAETAVASEYKADETKETNDTWNSQSGKRTESPSESCPVKGSVRTGLYEWDNDFEDIRSEDCILSLDNESLLEMKDEDLKNRIGGLENLNETFEEDIIQSVLRPSNCRTYCRANKARSSQGASNFDKLMDGTSQSLAKANSESSKDGLNQAKKGSASCGTSFRGTVGRTRDYTVLHPSCLSVCNVTIQDTMERSMDEFTASTPADLGEAGRLRKKADIATSKTTTRFRPSNTKSKKDVKLEFFGFEDHDETGGDEGGSGSSNYKIKYFGFDDLSESEDDDDDDCQVERKKDKKRTKTAPSPSQQPPPESSDNSQDSQSSTNNAENLDFTEDLPGVPESVKKPISKQGDKSKENTRKIFSGPKRSPTKAVYNARHWNHPDSEELPGPPIAKPQRVTVRLSSKEPNQKDDGVFKAPAPPLKVIKTVTIPTQPYQEIVTALKCRKEDKELYTVVQHVKHFNDVVEFGENQEFTDDIEYLLSGLKSTQPLNTRCLSVISLATKCAMPSFRMHLRAHGMVAMVFKTLDDSQHHQNLSLCTAALMYILSRDRLNMDLDRASLDLMIRLLELEQDASSAKLLNEKDMNKIKEKIRRLCETVHNKHLDLENITTGHLAMETLLSLTSKRAGDWFKEELRLLGGLDHIVDKVKECVDHLSRDDEDEEKLVASLWGAERCLRVLESVTVHNPENQSYLIAYKDSQLIISSAKALQHCEDLIQQYNRAENSICVADSNPLPYQNVTNHVGKAVEDCMRAIIGVLLNLTNDNEWGSTKTGEQEGLIGTAMNCVLQVPKYLPQEQRFDIRVLGLGLLINLVEYSARNRHCLVNMQTSCSFDSSFSSGEGDHSLRLAGQVHAVQALVQLFLERERAAQLAESKTDELIKDAPTTQHDKSGEWQETSGEIQWVSTEKTDGAEEKQKKEEEDEELDLNKALQHAGKHMEDCIVASYTALLLGCLCQESPINVTTVREYLPEGDFSIMTEMLKKFLSFMNLTCAVGTTGQKSISRVIEYLEHC
